This passage reports binding results from PMC12393827.

By UniProt entry, the sequences of proteins in these tests, tags left out. Residues count along the entry.
UniProt Q13136: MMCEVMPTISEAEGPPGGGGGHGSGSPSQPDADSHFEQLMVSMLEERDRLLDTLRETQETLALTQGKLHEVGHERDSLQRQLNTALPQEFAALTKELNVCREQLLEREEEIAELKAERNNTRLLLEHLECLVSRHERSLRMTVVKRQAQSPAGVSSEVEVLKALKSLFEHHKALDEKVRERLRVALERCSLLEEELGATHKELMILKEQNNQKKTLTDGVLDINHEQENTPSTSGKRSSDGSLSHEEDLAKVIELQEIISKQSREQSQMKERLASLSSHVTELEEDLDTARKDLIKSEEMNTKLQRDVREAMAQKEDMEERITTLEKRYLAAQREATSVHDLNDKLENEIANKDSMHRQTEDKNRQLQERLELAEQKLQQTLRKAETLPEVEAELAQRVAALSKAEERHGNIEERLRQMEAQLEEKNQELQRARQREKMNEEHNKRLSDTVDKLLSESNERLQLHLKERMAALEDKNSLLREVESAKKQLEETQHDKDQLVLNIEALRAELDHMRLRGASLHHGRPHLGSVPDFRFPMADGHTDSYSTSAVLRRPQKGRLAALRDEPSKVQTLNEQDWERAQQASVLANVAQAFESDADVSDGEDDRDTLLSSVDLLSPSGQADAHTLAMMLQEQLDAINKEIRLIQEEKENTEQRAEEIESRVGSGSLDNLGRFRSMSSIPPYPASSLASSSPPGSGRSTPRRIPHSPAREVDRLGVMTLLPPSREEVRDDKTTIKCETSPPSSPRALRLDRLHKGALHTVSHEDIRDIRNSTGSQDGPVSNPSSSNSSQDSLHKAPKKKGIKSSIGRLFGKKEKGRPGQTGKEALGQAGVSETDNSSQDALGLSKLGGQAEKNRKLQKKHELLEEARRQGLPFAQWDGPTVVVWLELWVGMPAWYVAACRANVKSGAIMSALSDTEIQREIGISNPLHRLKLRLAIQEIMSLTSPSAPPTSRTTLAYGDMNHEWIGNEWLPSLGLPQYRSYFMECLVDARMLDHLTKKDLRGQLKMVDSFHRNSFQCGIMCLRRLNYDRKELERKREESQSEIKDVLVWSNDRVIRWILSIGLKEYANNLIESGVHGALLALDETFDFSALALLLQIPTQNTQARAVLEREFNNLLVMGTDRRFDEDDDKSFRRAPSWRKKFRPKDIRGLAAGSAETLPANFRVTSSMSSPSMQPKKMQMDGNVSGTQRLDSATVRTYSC
UniProt A2A8L5, residues 30-1898: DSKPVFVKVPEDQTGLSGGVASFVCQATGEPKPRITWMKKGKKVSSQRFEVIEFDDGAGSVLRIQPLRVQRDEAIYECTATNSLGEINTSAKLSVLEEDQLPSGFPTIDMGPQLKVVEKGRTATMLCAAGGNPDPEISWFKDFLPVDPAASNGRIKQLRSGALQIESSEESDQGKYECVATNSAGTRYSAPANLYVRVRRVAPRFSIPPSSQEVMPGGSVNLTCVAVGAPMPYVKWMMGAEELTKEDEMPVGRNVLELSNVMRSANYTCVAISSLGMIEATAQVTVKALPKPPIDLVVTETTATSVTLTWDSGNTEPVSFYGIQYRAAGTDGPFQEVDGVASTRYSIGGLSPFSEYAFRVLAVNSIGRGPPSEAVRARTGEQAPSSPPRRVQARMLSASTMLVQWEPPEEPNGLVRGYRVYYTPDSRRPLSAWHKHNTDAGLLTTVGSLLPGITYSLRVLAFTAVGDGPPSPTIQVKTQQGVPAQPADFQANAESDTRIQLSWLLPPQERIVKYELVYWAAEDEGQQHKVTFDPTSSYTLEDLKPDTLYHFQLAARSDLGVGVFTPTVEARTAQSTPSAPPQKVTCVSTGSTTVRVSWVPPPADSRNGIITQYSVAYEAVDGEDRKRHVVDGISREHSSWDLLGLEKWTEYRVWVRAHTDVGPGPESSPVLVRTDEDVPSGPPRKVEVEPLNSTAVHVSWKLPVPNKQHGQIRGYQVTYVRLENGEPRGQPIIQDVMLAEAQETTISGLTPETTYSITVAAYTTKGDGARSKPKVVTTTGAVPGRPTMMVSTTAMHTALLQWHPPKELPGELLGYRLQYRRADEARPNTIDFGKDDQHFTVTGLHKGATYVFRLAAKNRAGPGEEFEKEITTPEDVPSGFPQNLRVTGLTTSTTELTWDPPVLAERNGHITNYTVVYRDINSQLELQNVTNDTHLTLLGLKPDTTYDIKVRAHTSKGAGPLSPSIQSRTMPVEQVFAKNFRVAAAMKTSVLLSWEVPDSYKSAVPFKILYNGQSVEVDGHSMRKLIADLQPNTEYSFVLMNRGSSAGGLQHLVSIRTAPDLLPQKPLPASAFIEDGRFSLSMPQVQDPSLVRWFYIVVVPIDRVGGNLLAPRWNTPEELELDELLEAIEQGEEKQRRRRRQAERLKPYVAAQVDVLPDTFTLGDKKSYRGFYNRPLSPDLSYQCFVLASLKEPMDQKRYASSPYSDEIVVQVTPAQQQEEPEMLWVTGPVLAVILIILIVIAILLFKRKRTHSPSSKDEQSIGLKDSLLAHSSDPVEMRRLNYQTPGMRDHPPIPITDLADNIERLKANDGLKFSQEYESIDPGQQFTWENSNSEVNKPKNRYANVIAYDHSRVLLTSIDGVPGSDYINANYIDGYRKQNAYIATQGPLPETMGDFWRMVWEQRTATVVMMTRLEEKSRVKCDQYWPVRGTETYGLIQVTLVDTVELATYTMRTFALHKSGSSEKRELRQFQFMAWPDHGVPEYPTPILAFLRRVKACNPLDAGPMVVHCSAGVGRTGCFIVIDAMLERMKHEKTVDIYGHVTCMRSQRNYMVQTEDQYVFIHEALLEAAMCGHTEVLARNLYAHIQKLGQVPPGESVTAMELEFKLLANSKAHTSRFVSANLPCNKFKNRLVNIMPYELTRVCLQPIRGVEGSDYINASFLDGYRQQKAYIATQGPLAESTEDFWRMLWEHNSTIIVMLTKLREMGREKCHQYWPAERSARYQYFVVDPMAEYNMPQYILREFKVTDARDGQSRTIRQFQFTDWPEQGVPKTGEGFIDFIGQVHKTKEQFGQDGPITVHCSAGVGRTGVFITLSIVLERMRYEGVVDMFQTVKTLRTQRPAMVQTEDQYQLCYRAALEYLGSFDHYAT
UniProt B2RXQ2: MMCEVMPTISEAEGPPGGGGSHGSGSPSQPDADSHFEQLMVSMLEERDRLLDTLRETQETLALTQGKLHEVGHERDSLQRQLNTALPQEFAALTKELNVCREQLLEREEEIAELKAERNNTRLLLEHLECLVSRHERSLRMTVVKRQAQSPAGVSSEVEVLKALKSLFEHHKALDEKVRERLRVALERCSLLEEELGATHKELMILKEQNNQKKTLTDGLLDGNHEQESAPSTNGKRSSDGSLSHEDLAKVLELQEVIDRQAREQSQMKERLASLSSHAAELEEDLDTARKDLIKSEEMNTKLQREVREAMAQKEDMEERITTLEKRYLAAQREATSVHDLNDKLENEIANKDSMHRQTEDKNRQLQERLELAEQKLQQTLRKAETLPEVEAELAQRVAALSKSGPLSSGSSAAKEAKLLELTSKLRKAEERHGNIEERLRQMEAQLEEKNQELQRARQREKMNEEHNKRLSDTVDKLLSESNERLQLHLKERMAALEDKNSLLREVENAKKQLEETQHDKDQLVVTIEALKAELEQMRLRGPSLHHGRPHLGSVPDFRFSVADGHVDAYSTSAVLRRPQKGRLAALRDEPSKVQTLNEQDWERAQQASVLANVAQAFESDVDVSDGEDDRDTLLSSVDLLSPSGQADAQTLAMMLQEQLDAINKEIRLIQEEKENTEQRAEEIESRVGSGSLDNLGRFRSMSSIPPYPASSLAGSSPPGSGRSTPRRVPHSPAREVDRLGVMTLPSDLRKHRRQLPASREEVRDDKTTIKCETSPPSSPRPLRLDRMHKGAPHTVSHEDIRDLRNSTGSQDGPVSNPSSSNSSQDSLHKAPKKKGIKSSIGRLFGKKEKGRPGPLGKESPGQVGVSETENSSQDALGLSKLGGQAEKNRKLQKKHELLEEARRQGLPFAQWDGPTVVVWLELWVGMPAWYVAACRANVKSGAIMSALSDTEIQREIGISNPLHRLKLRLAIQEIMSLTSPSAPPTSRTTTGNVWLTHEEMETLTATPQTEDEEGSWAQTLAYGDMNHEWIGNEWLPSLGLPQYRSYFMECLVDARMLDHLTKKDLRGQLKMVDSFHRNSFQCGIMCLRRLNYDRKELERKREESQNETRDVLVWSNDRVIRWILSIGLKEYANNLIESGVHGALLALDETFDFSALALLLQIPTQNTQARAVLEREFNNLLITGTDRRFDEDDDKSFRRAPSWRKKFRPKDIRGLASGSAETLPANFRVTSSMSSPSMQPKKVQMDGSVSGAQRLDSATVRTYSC
UniProt Q8BSS9: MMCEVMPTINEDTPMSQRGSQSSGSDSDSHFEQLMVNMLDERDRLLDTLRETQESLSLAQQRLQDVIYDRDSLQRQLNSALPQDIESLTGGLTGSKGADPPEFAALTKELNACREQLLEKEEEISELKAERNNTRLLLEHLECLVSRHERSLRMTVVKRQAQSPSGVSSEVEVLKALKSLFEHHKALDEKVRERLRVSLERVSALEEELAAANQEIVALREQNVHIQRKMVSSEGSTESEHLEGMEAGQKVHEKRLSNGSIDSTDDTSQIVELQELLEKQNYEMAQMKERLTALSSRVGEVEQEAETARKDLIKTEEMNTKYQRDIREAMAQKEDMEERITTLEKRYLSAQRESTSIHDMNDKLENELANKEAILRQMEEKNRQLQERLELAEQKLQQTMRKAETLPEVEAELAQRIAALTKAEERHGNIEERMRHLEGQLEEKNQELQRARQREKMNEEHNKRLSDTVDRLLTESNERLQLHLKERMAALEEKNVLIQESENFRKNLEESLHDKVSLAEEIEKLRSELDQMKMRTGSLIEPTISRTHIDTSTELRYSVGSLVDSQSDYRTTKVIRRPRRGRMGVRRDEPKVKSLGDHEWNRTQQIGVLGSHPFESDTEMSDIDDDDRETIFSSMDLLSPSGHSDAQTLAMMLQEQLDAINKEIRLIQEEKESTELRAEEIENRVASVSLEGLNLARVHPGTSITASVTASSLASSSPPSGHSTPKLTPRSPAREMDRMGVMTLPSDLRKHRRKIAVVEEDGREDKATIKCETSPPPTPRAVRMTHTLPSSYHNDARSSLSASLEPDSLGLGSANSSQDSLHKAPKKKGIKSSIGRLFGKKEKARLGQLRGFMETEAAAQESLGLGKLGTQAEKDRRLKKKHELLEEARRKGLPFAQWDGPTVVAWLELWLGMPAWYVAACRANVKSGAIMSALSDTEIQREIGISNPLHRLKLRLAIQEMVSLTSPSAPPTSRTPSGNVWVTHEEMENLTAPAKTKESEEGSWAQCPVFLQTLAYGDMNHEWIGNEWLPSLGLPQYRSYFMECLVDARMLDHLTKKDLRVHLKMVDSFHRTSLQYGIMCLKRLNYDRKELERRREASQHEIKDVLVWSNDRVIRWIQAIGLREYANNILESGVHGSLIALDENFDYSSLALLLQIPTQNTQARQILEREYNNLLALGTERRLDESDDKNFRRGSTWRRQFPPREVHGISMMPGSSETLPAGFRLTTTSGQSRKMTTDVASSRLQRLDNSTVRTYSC

This assay concerns the target GFP–liprin-α1 (not stated (human or mouse cDNA cloned)) (UniProt Q13136). The assay can be described thus: affinity purification with mass spectrometry; lysates of MIN6 cells expressing GFP–liprin-α1 or GFP (control), after 2.8 mM or 16.7 mM glucose KRBH for 2 h (results pooled); GFP-Trap agarose beads, 4°C, 1 h; lysis buffer 1% NP40, 10% glycerol, 137 mM NaCl, 25 mM Tris pH 7.4; DIA proteomics, DIA-NN, SAINTexpress, Bayesian FDR <0.05.

Results are given in words; binding and its absence hold for the method and conditions named. In cells and extracts the contact can be indirect. These calls come from enrichment with a bait or labelling near it, and not all partners need be listed. A no says only that the protein was not detected with the bait.

For “PTPRF (LAR) (from UniProt A2A8L5 30-1898) (receptor)”, the binding entry is recorded as “binds”.
Then “endogenous liprin-α1 (from UniProt B2RXQ2 1-1266)”, with “binds”; and liprin-α2 (from UniProt Q8BSS9 1-1257), with “binds”.

B1: GIT1 (protein, UniProt Q68FF6 1-770)
chain: MSRKGPRAEVCADCSAPDPGWASISRGVLVCDECCSVHRSLGRHISIVKHLRHSAWPPTLLQMVHTLASNGANSIWEHSLLDPAQVQSGRRKANPQDKVHPIKSEFIRAKYQMLAFVHKLPCRDDDGVTAKDLSKQLHSSVRTGNLETCLRLLSLGAQANFFHPEKGTTPLHVAAKAGQTLQAELLVVYGADPGSPDVNGRTPIDYARQAGHHELAERLVECQYELTDRLAFYLCGRKPDHKNGHYIIPQMADRSRQKCMSQSLDLSELAKAAKKKLQALSNRLFEELAMDVYDEVDRRENDAVWLATQNHSTLVTERSAVPFLPVNPEYSATRNQGRQKLARFNAREFATLIIDILSEAKRRQQGKSLSSPTDNLELSARSQSELDDQHDYDSVASDEDTDQEPLPSAGATRNNRARSMDSSDLSDGAVTLQEYLELKKALATSEAKVQQLMKVNSSLSDELRRLQREIHKLQAENLQLRQPPGPVPPPSLPSERAEHTLMGPGGSTHRRDRQAFSMYEPGSALKPFGGTPGDELATRLQPFHSTELEDDAIYSVHVPAGLYRIRKGVSASSVPFTPSSPLLSCSQEGSRHASKLSRHGSGADSDYENTQSGDPLLGLEGKRFLELSKEDELHPELESLDGDLDPGLPSTEDVILKTEQVTKNIQELLRAAQEFKHDSFVPCSEKIHLAVTEMASLFPKRPALEPVRSSLRLLNASAYRLQSECRKTVPPEPGAPVDFQLLTQQVIQCAYDIAKAAKQLVTITTREKKQ
Consider B1, for which the binding entry was “binds”.

B2: ELKS (protein, UniProt Q99MI1 1-1120)
chain: MYGSARSVGKVEPSSQSPGRSPRLPRSPRLGHRRTNSTGGSSGNSVGGGSGKTLSMENIQSLNAAYATSGPMYLSDHENVGAETPKSTMTLGRSGGRLPYGVRMTAMGSSPNIASSGVASDTIAFGEHHLPPVSMASTVPHSLRQARDNTIMDLQTQLKEVLRENDLLRKDVEVKESKLSSSMNSIKTFWSPELKKERALRKDEASKITIWKEQYRVVQEENQHMQMTIQALQDELRIQRDLNQLFQQDSSSRTGEPCVAELTEENFQRLHAEHERQAKELFLLRKTLEEMELRIETQKQTLNARDESIKKLLEMLQSKGLSAKATEEDHERTRRLAEAEMHVHHLESLLEQKEKENNMLREEMHRRFENAPDSAKTKALQTVIEMKDSKISSMERGLRDLEEEIQMLKSNGALSSEEREEEMKQMEVYRSHSKFMKNKVEQLKEELSSKDAQGEELKKRAAGLQSEIGQVKQELSRKDTELLALQTKLETLTNQFSDSKQHIEVLKESLTAKEQRAAILQTEVDALRLRLEEKETMLNKKTKQIQDMAEEKGTQAGEIHDLKDMLDVKERKVNVLQKKIENLQEQLRDKEKQMSSLKERVKSLQADTTNTDTALTTLEEALADKERTIERLKEQRDRDEREKQEEIDTYKKDLKDLREKVSLLQGDLSEKEASLLDIKEHASSLASSGLKKDSRLKTLEIALEQKKEECLKMESQLKKAHEATLEARASPEMSDRIQQLEREISRYKDESSKAQTEVDRLLEILKEVENEKNDKDKKIAELESLTSRQVKDQNKKVANLKHKEQVEKKKSAQMLEEARRREDSLSDSSQQLQDSLRKKDDRIEELEEALRESVQITAEREMVLAQEESARTNAEKQVEELLMAMEKVKQELESMKAKLSSTQQSLAEKETHLTNLRAERRKHLEEVLEMKQEALLAAISEKDANIALLELSSSKKKTQEEVAALKREKDRLVQQLKQQTQNRMKLMADNYEDDHFRSSRSNQTNHKPSPDQIIQPLLELDQNRSKLKLYIGHLTALCHDRDPLILRGLTPPASYNADGEQAAWENELQQMTQEQLQNELEKVEGDNAELQEFANTILQQIADHCPDILEQVVNALEESS
In the case of B2, the binding entry is recorded as “no binding”.

B3: liprin-β1 (protein, UniProt Q8C8U0 1-969)
chain: MMSDASDMLAAALEQMDGIIAGSKALEYSNGIFDCQSPTSPFMGSLRALHLVEDLRGLLEMMETDEKEGLRCQIPDSTAEVLIEWLQNQMTNGHLPGNGDVYQERLARLENDKESLVLQVSVLTDQVEAQGEKIRDLEFCLEEHREKLNATEEMLQQELLSRTSLETQKLELMAEISNLKLKLTAVEKDRLDYEDRFRDTEGLIQEINDLRLKVNEMDGERLQYEKKLKSTKDELASLKEQLEEKECEVKRLQERLVCKAKGEGIEVLDRDIEVQKMKKAVESLMAANEEKERKIEDLRQCLSRYRKMQDPAVLAQGQDSECEGLFHSSSISTLLDAQGFSDLERSTSSTPGMGSPSRDLLHTSAPEEFHTSVLQASIPSLLPPSVDVDTCEKPKLPTKPETSFEEGDGRAILGAAAEVSLSDGVSTSSLQKSSSLGNLKKEASDGTDKAPTDSRTFGTLPPKVPGHEASVDDNPFGTRKARSSFGRGFFKIKSGKRTASAPNLAETEKETAEHLNLAGTSRSKGSQGTSPFPMSPPSPDSRKKSRGIMRLFGKLRRSQSTTFNPDDMSEPEFKRGGTRATAGPRLGWSRDLGQSNSDLDMPFAKWTKEQVCSWLAEQGLGSYLSSGKHWIISGQTLLQASQQDLEKELGIKHSLHRKKLQLALQALGSEEETNYGKLDFNWVTRWLDDIGLPQYKTQFDEGRVDGRMLHYMTVDDLLSLKVVSVLHHLSIKRAIQVLRINNFEPNCLRRRPSDENSITPSEVQQWTNHRVMEWLRSVDLAEYAPNLRGSGVHGGLMVLEPRFNVETMAQLLNIPPNKTLLRRHLATHFNLLIGAEAQHQKRDAMELPDYVLLTATAKVKPKKLTFSNFGNLRKKKHEDGEEYVCPMELGQASGSSQKGFRPGLDMRLYEEDDLDRLEQMEDSEGTVRQIGAFSEGINNLTHMLKEDDMFKDFAARSPSASITDEDSNV
With B3, the binding result was “binds”.
